# According to PubChem BioAssay (NCATS):
# Protein sequences, listed by entry. Tags and fused reporters are not part of them. Lines headed by an entry give the natural chain unless they say otherwise; changes in a name come on top.
# UniProt Q03181: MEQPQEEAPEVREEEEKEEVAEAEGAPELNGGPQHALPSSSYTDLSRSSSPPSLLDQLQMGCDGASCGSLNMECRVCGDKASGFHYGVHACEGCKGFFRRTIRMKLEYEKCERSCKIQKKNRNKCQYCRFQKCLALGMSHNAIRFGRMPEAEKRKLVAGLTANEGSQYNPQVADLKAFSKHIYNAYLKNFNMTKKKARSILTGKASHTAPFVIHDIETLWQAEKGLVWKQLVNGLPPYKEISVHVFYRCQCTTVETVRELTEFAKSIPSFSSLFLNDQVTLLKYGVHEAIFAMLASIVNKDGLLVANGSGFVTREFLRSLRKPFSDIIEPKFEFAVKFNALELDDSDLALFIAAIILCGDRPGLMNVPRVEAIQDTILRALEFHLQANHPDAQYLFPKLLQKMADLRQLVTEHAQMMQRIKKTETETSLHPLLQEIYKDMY
# UniProt P19793: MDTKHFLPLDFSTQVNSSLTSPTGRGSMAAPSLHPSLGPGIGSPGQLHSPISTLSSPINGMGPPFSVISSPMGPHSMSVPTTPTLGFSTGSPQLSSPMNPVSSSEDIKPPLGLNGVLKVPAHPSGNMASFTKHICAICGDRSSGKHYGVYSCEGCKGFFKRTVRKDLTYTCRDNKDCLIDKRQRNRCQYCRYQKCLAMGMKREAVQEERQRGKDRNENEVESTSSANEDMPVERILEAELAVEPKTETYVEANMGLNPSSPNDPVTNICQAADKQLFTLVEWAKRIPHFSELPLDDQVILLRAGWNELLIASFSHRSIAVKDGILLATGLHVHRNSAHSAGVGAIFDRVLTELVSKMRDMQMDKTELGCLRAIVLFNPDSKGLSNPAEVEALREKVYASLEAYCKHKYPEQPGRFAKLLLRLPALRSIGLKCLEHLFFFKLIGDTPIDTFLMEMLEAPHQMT
# UniProt P10828: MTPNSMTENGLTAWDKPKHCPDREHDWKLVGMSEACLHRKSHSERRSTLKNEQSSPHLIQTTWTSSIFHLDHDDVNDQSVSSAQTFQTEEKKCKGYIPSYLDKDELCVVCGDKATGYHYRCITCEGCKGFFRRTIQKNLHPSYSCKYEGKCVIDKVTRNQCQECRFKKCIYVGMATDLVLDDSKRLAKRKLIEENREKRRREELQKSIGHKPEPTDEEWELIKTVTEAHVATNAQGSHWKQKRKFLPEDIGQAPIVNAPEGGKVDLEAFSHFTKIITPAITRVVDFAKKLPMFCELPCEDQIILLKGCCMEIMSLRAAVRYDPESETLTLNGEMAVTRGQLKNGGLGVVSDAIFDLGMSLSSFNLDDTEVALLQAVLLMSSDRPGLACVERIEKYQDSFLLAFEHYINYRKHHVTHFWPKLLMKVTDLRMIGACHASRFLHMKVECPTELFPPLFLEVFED
# The inconclusive results got no clear call from the source; some entries with a clear call stand among them for comparison. For some assays here: Potencies beside an inconclusive call are fits to weak or partial responses and may not hold up. For some assays here: A note “side channel” means that the fit belongs to a control or component signal, not to the main read-out. Active and inactive are the calls of the source. Unless noted, calls come from the whole dose curve.
# Key:
# [1] = target: Peroxisome proliferator-activated receptor delta (Homo sapiens) (UniProt Q03181); experiment: qHTS assay for small molecule antagonists of peroxisome proliferator-activated receptor delta signaling (AID 588535; active = well fitted inhibition curve with a large enough effect in the signal ratio, with a control signal flat, not every such curve was filed as active; inconclusive = small, poorly fitted or top-dose-only effect, or effect the other way, or a change in a side signal; inactive = no such curve, though single readings can be large or run the other way; the % refers to the signal ratio; note: potency is the fitted concentration of half-maximal effect); details: HEK293T PPARd-UAS-bla, beta-lactamase FRET ratio, 18 h; activity change, negative = inhibition: at 76.7 µM (top of the series) unless noted
# Procedure, shortened: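 Fluorescence from CCF4-loaded GeneBLAzer PPAR-delta-UAS-bla HEK293T cells (2 hrs RT loading) quantified reporter inhibition after an 18 hr, 37 C compound exposure across a titration.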
# [2] = target: Retinoic acid receptor RXR-alpha (Homo sapiens) (UniProt P19793); experiment: qHTS assay for small molecule agonists of retinoid X receptor alpha signaling (AID 588544); details: HEK293T RXRa-UAS-bla, beta-lactamase reporter, 18 h; activation: at 76.7 µM (top of the series); note: potency is the fitted concentration of half-maximal effect;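 for activation: 0% = DMSO basal wells and 100% = reference agonist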
# [3] = target: Retinoic acid receptor RXR-alpha (Homo sapiens) (UniProt P19793); experiment: qHTS assay for small molecule antagonists of retinoid X receptor alpha signaling (AID 588546; active = well fitted inhibition curve with a large enough effect in the signal ratio, with a control signal flat, not every such curve was filed as active; inconclusive = small, poorly fitted or top-dose-only effect, or effect the other way, or a change in a side signal; inactive = no such curve, though single readings can be large or run the other way; the % refers to the signal ratio; note: potency is the fitted concentration of half-maximal effect;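 for max response: cells stimulated with 9-cis-retinoic acid as agonist; % is set by controls: 0 for no effect and ±100 for the full control effect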); details: HEK293T RXRa-UAS-bla, beta-lactamase ratio, antagonist mode
# Procedure, shortened: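 Beta-lactamase reporter inhibition, read as CCF4 fluorescence ratio (ex 405, em 460/530 nm) after 2 h at RT. HEK293T UAS-bla cells, 2500/well, were stimulated with 9-cis-RA at 500 or 100 nM final alongside test compound for 18 h at 37 C.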
# [4] = qHTS assay for cell viability of HEK293 cells (AID 743288; active = well fitted curve in the direction sought with a large enough effect; inconclusive = small, poorly fitted or top-dose-only effect, or another doubt; inactive = no such curve, though single readings can be large; an effect the other way counts as inactive or inconclusive; note: % is set by controls: 0 for no effect and ±100 for the full control effect; nearly all actives have a fitted effect of over 50% in size); details: ATP luminescence (CellTiter-Glo), 18 h; max response: stronger effect = lower value
# Procedure, shortened: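 HEK293, 18 h, 37 C, ATP luminescence. Cells at 2,000/well were allowed at least 5 h to settle before dosing; CellTiter-Glo developed 30 min at RT.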
# [5] = target: Vitamin D3 receptor (Homo sapiens) (UniProt P11473); experiment: qHTS assay for small molecule antagonists of vitamin D receptor signaling (AID 588541); details: HEK293T VDR-UAS-bla, beta-lactamase ratio, antagonist mode; activity change, negative = inhibition: at 76.7 µM (top of the series); note: potency is the fitted concentration of half-maximal effect
# [6] = target: Thyroid hormone receptor beta (Homo sapiens) (UniProt P10828); experiment: qHTS assay for small molecule agonists of thyroid hormone receptor beta signaling (AID 588545); details: TR-UAS-bla GripTite HEK 293, beta-lactamase ratio, agonist mode, 18 h; activation: at 76.7 µM, percent of T3 response, DMSO as zero; note: potency is the fitted concentration of half-maximal effect
# Procedure, shortened: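 Efficacy and EC50 values derive from Hill fits of qHTS titration data, normalized to 10 nM T3 and DMSO-only wells. HEK 293 reporter cells were stimulated for 18 hrs at 37 C, with beta-lactamase activity measured by CCF4 fluorescence.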
# [7] = target: Thyroid hormone receptor beta (Homo sapiens) (UniProt P10828); experiment: qHTS assay for small molecule antagonists of thyroid hormone receptor beta signaling (AID 588547; active = well fitted inhibition curve with a large enough effect in the signal ratio, with a control signal flat, not every such curve was filed as active; inconclusive = small, poorly fitted or top-dose-only effect, or effect the other way, or a change in a side signal; the % refers to the signal ratio; note: potency is the fitted concentration of half-maximal effect;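 for activity change % (negative = inhibition): cells stimulated with 0.4 nM T3 agonist during compound exposure; % is set by controls: 0 for no effect and ±100 for the full control effect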); details: TR-UAS-bla HEK293, beta-lactamase ratio, antagonist mode, 18 h
# Procedure, shortened: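 TR-UAS-bla GripTite HEK293 cells in 2% charcoal/dextran FBS medium; compounds 0.59 nM to 92 uM with T3 at 0.4nM final, 18 h at 37 C. Beta-lactamase read by CCF4 fluorescence (460/530 nm); Hill fits gave IC50 and efficacy.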
# [8] = target: Peroxisome proliferator-activated receptor gamma (Homo sapiens) (UniProt P37231); experiment: qHTS assay for small molecule agonists of peroxisome proliferator-activated receptor gamma signaling (AID 588536; active = well fitted curve in the direction sought with a large enough effect in the signal ratio, with a control signal flat, not every such curve was filed as active; inconclusive = small, poorly fitted or top-dose-only effect, or effect the other way, or a change in a side signal; inactive = no such curve, though single readings can be large or run the other way; the % refers to the signal ratio;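 note: 0% = DMSO basal wells and 100% = rosiglitazone at 2 µM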); details: HEK293 PPARg-UAS-bla, beta-lactamase ratio, 16 h; activation: at 76.7 µM (top of the series), percent of rosiglitazone response, DMSO as zero
# Procedure, shortened: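 Using GeneBLAzer HEK293 cells, response was quantified by CCF4 fluorescence and normalized between basal DMSO (0%) and rosiglitazone 2 uM (100%); curves yielded half-maximal stimulation concentration and efficacy.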
# [9] = target: Peroxisome proliferator-activated receptor gamma (Homo sapiens) (UniProt P37231); experiment: qHTS assay for small molecule antagonists of peroxisome proliferator-activated receptor gamma signaling (AID 588537; active = well fitted inhibition curve with a large enough effect in the signal ratio, with a control signal flat, not every such curve was filed as active; inconclusive = small, poorly fitted or top-dose-only effect, or effect the other way, or a change in a side signal; the % refers to the signal ratio;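 note: reporter cells co-stimulated with 50 nM rosiglitazone agonist during compound treatment; % of control where 0% means no effect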); details: HEK293 PPARg-UAS-bla, beta-lactamase ratio, antagonist mode; activity, negative = inhibition: at 76.8 µM (top of the series) unless noted
# Procedure, shortened: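 Fluorescence at 460 and 530 nm (405 nm excitation) reported beta-lactamase cleavage of CCF4 after 2 h room-temperature loading. HEK293 reporter cells in 1% charcoal/dextran-treated FBS had received compound and rosiglitazone for 16 h.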
# [10] = Cell Viability - LYMP2-024 (AID 988; active = well fitted curve in the direction sought with a large enough effect; inconclusive = small, poorly fitted or top-dose-only effect, or another doubt; inactive = no such curve, though single readings can be large; an effect the other way counts as inactive or inconclusive;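 note: plate controls were DMSO only for no effect and 92 µM tetraoctylammonium bromide for full effect; nearly all actives have a fitted effect of over 60% in size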)
# Procedure, shortened: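 Cytotoxicity was taken as a decrease in ATP (CellTiter-Glo luminescence) after 24 hr compound exposure at 37 C of LYMP2-024 lymphoblastoid cells, 2500 cells/well. Concentration-response data were fitted to the Hill equation to give AC50.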
# [11] = target: Vitamin D3 receptor (Homo sapiens) (UniProt P11473); experiment: qHTS assay for small molecule agonists of vitamin D receptor signaling (AID 588543); details: HEK293T VDR-UAS-bla, beta-lactamase ratio, 16 h; activation: at 76.8 µM (top of the series); note: potency is the fitted concentration of half-maximal effect
# Procedure, shortened: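 Measured: β-lactamase reporter activity (CCF4, 405 nm excitation, 460/530 nm emission) in HEK293T VDR-UAS-bla cells after 16 h compound exposure at 37 °C. Normalization against 50 nM 1α,25-dihydroxyvitamin D3 and DMSO; Hill-fit EC50.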
# [12] = qHTS assay for small molecule agonists of the antioxidant response element (ARE) signaling pathway (AID 651741; active = well fitted activation curve with a large enough effect in the signal ratio; inconclusive = small, poorly fitted or top-dose-only effect, or effect the other way, or a change in a side signal; the % refers to the signal ratio; note: % of control where 0% means no effect); details: HepG2 ARE-bla reporter, beta-lactamase FRET ratio, 16 h; activation: at 96 µM (top of the series) unless noted
# Procedure, shortened: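 Stably integrated ARE-beta-lactamase reporter HepG2 cells; 16 h compound incubation, 37 C; LiveBLAzer FRET substrate 2 h at room temperature; fluorescence intensity.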
# [13] = qHTS assay to identify small molecules that stimulate interleukin-8 (IL-8) secretion (AID 651758; active = well fitted activation curve with a large enough effect in the signal ratio; inconclusive = small, poorly fitted or top-dose-only effect, or effect the other way, or a change in a side signal; the % refers to the signal ratio; note: 0% is about no effect); details: HTRF ratio (665/615); activation: at 92.2 µM (top of the series)
# Procedure, shortened: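 Compounds are added to THP-1 cells (2000 per well) and left 16 hrs at 37 C. A labeled anti-IL-8 antibody pair is then added, and IL-8 secretion is measured by time-resolved FRET after 1-3 hrs at room temperature.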
# [14] = MultiTox-Fluor Cytotoxicity Assay - LYMP1-002 - Dead Cells (AID 960; active = well fitted curve in the direction sought with a large enough effect; inconclusive = small, poorly fitted or top-dose-only effect, or another doubt; inactive = no such curve, though single readings can be large; an effect the other way counts as inactive or inconclusive; note: potency is the fitted concentration of half-maximal effect; nearly all actives have a fitted effect of over 60% in size); details: LYMP1-002 lymphoblastoid cells, dead-cell protease fluorescence; cytotoxicity (dead cells): at 46.1 µM (top of the series)
# Procedure, shortened: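 Dead-cell fluorescence (Ex/Em 485/520) after 16 h compound exposure at 37 C of LYMP1-002 lymphoblastoid cells in complete medium; AC50 by Hill equation, with data scaled between DMSO and 15 uM tetraoctylammonium bromide.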
# [15] = Cell Viability - LYMP2-005 (AID 967; active = well fitted curve in the direction sought with a large enough effect; inconclusive = small, poorly fitted or top-dose-only effect, or another doubt; inactive = no such curve, though single readings can be large; an effect the other way counts as inactive or inconclusive;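 note: plate controls were DMSO only for no effect and 92 µM tetraoctylammonium bromide control for full effect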)
# Procedure, shortened: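 Luciferase-based ATP quantitation served as the viability measure in human lymphoblastoid LYMP2-005 cells exposed to test compounds for 24 h at 37 C in complete culture medium. Potency (AC50) was obtained by fitting concentration-response curves with the Hill equation.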
# [16] = target: Peroxisome proliferator-activated receptor delta (Homo sapiens) (UniProt Q03181); experiment: qHTS assay for small molecule agonists of peroxisome proliferator-activated receptor delta signaling (AID 588534); details: HEK293T PPARdelta-UAS-bla, beta-lactamase ratio, 18 h; activation: at 76.7 µM (top of the series) unless noted;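 note: 0% = DMSO basal wells and 100% = positive control agonist at 10 µM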
# Procedure, shortened: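 Agonist-mode beta-lactamase reporter readout (CCF4 dye, 2 h at RT) after 18 h at 37 °C exposure to a titration; Hill-equation fitting gave EC50 and maximal response.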
smiles,measurement,setting,value
C[C@]12CC[C@@H]3c4ccc(O)cc4CC[C@H]3[C@@H]1CC[C@H]2O,"activity change, negative = inhibition",[1],inconclusive: -18.2%
same,activation,[2],inconclusive: -30.5%
same,max response,[3],inconclusive: -43.6%
same,max response,[4],inactive: -24%
CCCCCCC(C)OC(=O)COc1nc(F)c(Cl)c(N)c1Cl (stereo unspecified),Potency,[1],"inconclusive: 14.1 µM [cytotoxic, side channel, single point]"
same,Potency,[5],"inconclusive: 44.7 µM [inhibitor, single point]"
same,Potency,[2],"inconclusive: 56.2 µM [activator, partial curve, poor fit]"
same,Potency,[6],"inconclusive: 31.6 µM [side channel, rising, partial curve]"
same,Potency,[3],inconclusive: 17.8 µM [side channel]
same,activity change % (negative = inhibition),[7],inconclusive: 4.97%
same,max response,[4],inactive: -29.6%
O=C1CCCCCCCCCCC1,Potency,[1],inactive
C=CCCCCCCCCCC,Potency,[1],inactive
same,Potency,[8],inactive
same,"activity, negative = inhibition",[9],inconclusive: -0.599%
same,Potency,[7],"inconclusive: 0.562 µM [side channel, falling, full curve, poor fit]"
CCCCN(CCO)CCCC,Potency,[10],inactive
same,Potency,[1],inactive
same,Potency,[11],"inconclusive: 5.62 µM [side channel, rising, full curve, poor fit]"
same,Potency,[12],inactive
same,activation,[13],inconclusive: 2.84%
CC(=O)Nc1ccccc1C,Potency,[14],"inconclusive: 7.94 µM [cytotoxic, partial curve, poor fit]"
same,Potency,[15],inactive
same,Potency,[16],inactive
same,Potency,[9],inactive
same,Potency,[13],inactive

# A run of entries of the results above, as a working copy:
smiles,measurement,setting,value
CC(=O)Nc1ccccc1C,Potency,[16],inactive
same,Potency,[9],inactive
